Assay results published in the supplement of paper PMC10849652.
The list shows a part of the results.

Chains of the proteins cited; added tags and fusions are not shown. Lines headed by an entry give the natural chain unless they say otherwise; changes in a name come on top.
UniProt O60936: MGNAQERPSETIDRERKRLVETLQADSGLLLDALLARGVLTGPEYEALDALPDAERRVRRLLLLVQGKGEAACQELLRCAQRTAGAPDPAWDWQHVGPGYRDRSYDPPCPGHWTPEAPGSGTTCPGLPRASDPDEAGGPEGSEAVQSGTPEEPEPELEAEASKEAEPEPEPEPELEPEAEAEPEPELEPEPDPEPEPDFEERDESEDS
UniProt Q15155: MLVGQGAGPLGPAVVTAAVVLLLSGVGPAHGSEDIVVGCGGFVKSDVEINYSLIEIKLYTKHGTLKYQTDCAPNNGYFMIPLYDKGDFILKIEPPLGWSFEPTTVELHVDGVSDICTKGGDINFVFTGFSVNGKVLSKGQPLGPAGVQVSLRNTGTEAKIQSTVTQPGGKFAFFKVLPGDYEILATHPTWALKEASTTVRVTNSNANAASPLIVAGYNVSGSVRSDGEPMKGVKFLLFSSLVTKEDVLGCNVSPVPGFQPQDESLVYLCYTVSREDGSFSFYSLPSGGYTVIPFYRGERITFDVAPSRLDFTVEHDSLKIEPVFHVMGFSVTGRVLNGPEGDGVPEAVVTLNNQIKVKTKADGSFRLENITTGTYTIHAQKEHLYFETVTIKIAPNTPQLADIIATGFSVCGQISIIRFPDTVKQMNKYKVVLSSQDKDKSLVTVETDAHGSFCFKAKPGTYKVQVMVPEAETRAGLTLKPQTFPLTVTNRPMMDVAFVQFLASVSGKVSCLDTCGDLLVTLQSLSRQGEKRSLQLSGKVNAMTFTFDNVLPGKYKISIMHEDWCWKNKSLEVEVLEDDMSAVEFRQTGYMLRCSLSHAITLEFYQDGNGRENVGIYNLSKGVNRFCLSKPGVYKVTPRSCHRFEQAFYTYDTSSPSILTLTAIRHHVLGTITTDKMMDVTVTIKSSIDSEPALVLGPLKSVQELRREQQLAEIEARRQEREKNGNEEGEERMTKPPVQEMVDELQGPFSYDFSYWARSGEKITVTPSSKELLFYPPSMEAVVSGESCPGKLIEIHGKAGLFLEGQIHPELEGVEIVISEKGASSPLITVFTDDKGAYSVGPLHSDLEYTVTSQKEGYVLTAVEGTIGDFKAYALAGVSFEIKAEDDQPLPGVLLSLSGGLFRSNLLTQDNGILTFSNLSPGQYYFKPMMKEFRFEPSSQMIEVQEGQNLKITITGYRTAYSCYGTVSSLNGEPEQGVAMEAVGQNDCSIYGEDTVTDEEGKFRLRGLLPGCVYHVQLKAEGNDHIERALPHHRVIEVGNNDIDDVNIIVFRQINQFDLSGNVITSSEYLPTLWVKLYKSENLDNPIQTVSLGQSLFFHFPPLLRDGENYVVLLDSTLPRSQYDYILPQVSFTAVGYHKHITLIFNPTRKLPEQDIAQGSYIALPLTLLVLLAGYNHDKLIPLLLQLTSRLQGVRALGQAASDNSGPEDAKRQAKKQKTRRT
UniProt Q8NE18: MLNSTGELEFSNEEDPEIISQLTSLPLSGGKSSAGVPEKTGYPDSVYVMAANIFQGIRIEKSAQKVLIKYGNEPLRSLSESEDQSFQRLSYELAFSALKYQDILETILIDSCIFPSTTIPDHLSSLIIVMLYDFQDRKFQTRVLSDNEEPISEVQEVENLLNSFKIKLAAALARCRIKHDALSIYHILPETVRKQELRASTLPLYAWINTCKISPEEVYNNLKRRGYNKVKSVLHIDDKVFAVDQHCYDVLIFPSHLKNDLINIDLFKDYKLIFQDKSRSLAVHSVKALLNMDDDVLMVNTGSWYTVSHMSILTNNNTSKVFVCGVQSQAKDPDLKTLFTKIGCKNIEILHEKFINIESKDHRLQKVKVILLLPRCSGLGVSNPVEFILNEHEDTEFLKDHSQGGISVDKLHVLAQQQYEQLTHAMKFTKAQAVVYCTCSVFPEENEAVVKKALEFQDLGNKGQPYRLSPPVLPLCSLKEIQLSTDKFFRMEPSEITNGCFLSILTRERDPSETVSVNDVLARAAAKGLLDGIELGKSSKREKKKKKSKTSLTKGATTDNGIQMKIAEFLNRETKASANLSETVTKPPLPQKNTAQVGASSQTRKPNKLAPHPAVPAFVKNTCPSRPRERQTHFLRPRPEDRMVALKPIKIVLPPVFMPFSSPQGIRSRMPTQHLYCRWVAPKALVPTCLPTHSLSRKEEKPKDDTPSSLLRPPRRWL
UniProt P04150: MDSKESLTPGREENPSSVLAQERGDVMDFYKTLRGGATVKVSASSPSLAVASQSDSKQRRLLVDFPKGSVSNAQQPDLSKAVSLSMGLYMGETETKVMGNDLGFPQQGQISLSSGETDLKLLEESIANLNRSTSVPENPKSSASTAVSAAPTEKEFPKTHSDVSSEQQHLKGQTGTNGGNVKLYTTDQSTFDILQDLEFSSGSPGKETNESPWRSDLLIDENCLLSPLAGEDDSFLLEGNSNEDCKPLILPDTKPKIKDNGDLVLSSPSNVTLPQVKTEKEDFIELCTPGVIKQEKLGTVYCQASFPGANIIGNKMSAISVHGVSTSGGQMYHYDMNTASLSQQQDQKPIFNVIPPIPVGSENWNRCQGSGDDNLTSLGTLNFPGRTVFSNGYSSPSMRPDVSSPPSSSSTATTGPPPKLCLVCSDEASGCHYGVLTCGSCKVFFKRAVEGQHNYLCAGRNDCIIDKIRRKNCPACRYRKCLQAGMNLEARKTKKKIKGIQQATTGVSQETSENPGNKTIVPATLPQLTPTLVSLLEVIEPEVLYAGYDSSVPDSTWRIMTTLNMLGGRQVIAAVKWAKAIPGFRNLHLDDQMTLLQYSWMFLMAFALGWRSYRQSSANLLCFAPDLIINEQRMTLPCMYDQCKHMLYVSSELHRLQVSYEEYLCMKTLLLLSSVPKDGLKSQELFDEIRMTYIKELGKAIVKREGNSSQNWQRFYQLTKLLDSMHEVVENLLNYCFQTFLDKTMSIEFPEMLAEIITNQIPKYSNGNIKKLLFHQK
UniProt P24468: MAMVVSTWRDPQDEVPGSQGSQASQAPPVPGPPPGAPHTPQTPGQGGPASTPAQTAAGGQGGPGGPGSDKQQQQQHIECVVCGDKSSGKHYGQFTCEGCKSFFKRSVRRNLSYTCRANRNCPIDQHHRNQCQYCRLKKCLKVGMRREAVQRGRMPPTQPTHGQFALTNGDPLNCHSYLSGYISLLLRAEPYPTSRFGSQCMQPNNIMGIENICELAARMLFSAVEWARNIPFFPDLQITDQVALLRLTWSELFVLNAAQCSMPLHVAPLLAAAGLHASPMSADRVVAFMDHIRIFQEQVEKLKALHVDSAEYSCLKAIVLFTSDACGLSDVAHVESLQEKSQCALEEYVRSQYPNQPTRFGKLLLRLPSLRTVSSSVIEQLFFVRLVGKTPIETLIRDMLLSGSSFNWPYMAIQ
UniProt Q9Y5A7: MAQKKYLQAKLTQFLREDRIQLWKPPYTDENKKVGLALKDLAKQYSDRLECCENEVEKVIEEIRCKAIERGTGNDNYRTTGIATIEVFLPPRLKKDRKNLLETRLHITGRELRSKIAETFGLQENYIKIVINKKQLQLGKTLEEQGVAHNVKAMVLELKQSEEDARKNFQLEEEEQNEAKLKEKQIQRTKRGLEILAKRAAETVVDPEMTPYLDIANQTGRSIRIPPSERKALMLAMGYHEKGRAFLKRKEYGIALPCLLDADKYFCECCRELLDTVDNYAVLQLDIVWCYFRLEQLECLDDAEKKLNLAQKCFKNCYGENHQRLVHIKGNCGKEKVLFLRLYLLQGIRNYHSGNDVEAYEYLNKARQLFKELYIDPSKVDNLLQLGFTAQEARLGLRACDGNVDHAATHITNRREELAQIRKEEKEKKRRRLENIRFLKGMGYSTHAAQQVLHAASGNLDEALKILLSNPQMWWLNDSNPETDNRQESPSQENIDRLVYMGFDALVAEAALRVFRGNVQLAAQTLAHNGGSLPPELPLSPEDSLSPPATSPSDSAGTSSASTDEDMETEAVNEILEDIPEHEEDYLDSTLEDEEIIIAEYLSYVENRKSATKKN
UniProt Q96AB6: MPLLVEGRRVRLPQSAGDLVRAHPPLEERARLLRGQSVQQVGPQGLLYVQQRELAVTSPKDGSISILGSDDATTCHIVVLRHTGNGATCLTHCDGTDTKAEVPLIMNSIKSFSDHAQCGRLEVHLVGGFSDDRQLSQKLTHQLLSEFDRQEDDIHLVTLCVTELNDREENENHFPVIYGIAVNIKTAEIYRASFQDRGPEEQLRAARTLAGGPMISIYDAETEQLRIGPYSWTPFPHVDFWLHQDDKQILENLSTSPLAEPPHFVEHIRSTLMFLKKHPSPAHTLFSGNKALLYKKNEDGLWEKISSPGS
UniProt Q9BXD5: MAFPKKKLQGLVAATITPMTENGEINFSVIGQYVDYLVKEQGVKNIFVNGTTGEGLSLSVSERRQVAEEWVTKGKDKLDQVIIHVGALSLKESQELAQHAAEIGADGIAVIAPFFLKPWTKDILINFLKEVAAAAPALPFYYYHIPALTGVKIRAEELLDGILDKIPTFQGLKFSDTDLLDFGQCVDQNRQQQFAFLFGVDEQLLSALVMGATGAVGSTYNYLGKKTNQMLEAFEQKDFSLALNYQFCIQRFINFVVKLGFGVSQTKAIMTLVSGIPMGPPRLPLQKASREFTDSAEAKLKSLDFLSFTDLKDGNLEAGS
UniProt P15531, whole entry, looked up: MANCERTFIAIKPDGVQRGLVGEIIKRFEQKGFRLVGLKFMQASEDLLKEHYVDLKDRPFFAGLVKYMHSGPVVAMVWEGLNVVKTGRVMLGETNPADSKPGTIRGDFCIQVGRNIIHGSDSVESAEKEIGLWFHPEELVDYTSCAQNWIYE
UniProt P53370: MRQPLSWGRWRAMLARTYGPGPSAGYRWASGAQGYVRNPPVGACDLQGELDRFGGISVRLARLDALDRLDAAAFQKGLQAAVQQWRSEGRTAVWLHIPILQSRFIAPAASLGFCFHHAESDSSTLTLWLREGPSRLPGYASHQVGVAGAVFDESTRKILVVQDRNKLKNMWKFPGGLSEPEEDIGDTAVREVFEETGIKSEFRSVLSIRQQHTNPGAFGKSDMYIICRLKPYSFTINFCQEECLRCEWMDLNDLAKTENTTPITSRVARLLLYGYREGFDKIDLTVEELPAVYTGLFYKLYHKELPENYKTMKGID

Key:
Experiment in all cases: log2 fold change, soluble protein after heating vs DMSO (PISA); higher = thermal stabilisation; K562 lysate, 10 uM; active = over 0.2 and 3.5 SD of the protein, either way, in both replicates (recomputed)
[1] = compound: C#Cc1cccc(Nc2ncnc3cc(OCCOC)c(OCCOC)cc23)c1 [erlotinib]
Summary of the method: (§1)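 K562 pellets were dounce-homogenised in PBS pH 7.4 with 1 mM MgCl2, and the crude extract at 1 mg/mL protein was treated with 10 μM compound for 30 min. Aliquots were heated for 3 min across 48°C-58°C, pooled, and brought to 0.5% NP-40 at 4°C; soluble protein was the supernatant after 21,000xg for 90 min. Soluble protein was quantified by TMTpro 16plex LC-MS/MS with channel sums equalised, and reported as log2 fold change in thermal stability against DMSO controls, with values from duplicates.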

[2] = compound: C/C(=N\NC(=O)C1=CC(=CC=C1)S(=O)(=O)N2CCOCC2)/C3=C(C=CC(=C3)Cl)O
Summary of the method: as §1

[3] = compound: C1=CC(=CC=C1C2=NC3=C(N2)C=C(C=C3)C(=O)N)OC4=CC=C(C=C4)Cl
Summary of the method: as §1

[4] = compound: C1=CC2=C(C=CC(=C2)/C=C\3/C(=O)NC(=NCC4=CC=CS4)S3)N=C1
Summary of the method: as §1

[5] = compound: C1=CC=C(C=C1)C2=NC(=C(N2)C3=CC=NC=C3)C4=CC(=C(C=C4)Cl)O
Summary of the method: as §1

[6] = compound: C1=CC=C2C(=C1)C3=NNC4=CC=CC(=C43)C2=O
Summary of the method: as §1

[7] = compound: C1COCCN1CCN2C3=CC=CC=C3N=C2NC(=O)C4=CC(=CC=C4)[N+](=O)[O-] [IRAK-1-4 Inhibitor I]
Summary of the method: as §1

[8] = compound: CC(=O)c1cnc2ccc(-c3cc(Cl)c(O)c(Cl)c3)nc2c1N[C@H]1CC[C@H](CN(C)C)CC1
Summary of the method: as §1

[9] = compound: CC(C)(C)Cn1c(N)nc2ccc(-c3[nH]c(C(C)(C)C)nc3-c3ccc(F)cc3)nc21 [ralimetinib]
Summary of the method: as §1

[10] = compound: CC(C)(O)CC(=O)NCCn1ccc2ncnc(Nc3ccc(Oc4cccc(C(F)(F)F)c4)c(Cl)c3)c21
Summary of the method: as §1

[11] = compound: CC(C)C1=C2N=C(C=C(N2N=C1)NCC3=CC=CC=C3)NCCCCCCN
Summary of the method: as §1

[12] = compound: CC1=C(C(CC(=O)N1)C2=CC=C(C=C2)C(F)(F)F)C(=O)NC3=C(C=C4C(=C3)C=NN4)F
Summary of the method: as §1

[13] = compound: CC1=C(C2=C(C=C1)C(=O)C3=CC=CC=C3N2CCCN)C
Summary of the method: as §1

[14] = compound: CC1=C(C=C(C=C1)NC(=O)C2=CC(=CC=C2)C(C)(C)C#N)NC3=CC4=C(C=C3)N=CN(C4=O)C
Summary of the method: as §1

[15] = compound: CC1=C(C=C(C=C1)NC(=O)C2=CC(=CC=C2)N(C)C)NC(=O)C3=CC=C(C=C3)O
Summary of the method: as §1

[16] = compound: CC1=CC=C(C=C1)SC2=C3C=C(SC3=CN=C2)C(=O)N
Summary of the method: as §1

[17] = compound: C1=CC2=NC=CN=C2C=C1/C=C/3\C(=O)NC(=O)S3
Summary of the method: as §1

[18] = compound: C1CCN(C1)C(=O)NC2=CC=CC(=C2)NC3=NC=C(C(=N3)NCCC4=CN=CN4)Br
Summary of the method: as §1

[19] = compound: C1CN(CCC1(CC2=CC=C(C=C2)Cl)N)C3=NC=NC4=C3C=CN4
Summary of the method: as §1

[20] = compound: C=CC(=O)N1CCC[C@@H](n2nc(-c3ccc(Oc4ccccc4)cc3)c3c(N)ncnc32)C1 [ibrutinib]
Summary of the method: as §1

Target | log2 fold change [1] | log2 fold change [2] | log2 fold change [3] | log2 fold change [4] | log2 fold change [5] | log2 fold change [6] | log2 fold change [7] | log2 fold change [8] | log2 fold change [9] | log2 fold change [10] | log2 fold change [11] | log2 fold change [12] | log2 fold change [13] | log2 fold change [14] | log2 fold change [15] | log2 fold change [16] | log2 fold change [17] | log2 fold change [18] | log2 fold change [19] | log2 fold change [20]
NOL3 isoform 3 (UniProt O60936) | inactive: 0.271 | inactive: -0.117 | inactive: 0.139 | inactive: -0.112 | inactive: 0.114 | inactive: -0.101 | inactive: 0.026 | inactive: 0.03 | inactive: -0.045 | inactive: -0.037 | inactive: 0.037 | inactive: -0.334 | inactive: -0.031 | inactive: -0.158 | inactive: -0.204 | inactive: -0.151 |  |  |  | 
NOMO1 (UniProt Q15155) | inactive: -0.012 |  | inactive: 0.044 |  | inactive: -0.041 |  | inactive: 0.073 | inactive: -0.021 | inactive: -0.061 | inactive: -0.119 | inactive: -0.093 | inactive: -0.013 | inactive: 0.009 | inactive: 0.07 | inactive: 0.083 | inactive: 0.001 | inactive: 0.02 | inactive: 0.14 | inactive: -0.038 | inactive: -0.024
NSUN7 (UniProt Q8NE18) | inactive: -0.037 | inactive: -0.271 | inactive: 0.019 | inactive: -0.095 | inactive: -0.031 | inactive: -0.087 | inactive: 0.068 | inactive: -0.025 | inactive: 0.168 | inactive: -0.137 | inactive: 0.042 |  |  | inactive: 0.102 | inactive: -0.009 | inactive: -0.017 | inactive: 0.198 | inactive: -0.026 | inactive: -0.042 | inactive: 0.076
NSA2 (UniProt O95478) | inactive: -0.015 | inactive: -0.15 | inactive: 0.009 | inactive: -0.102 | inactive: -0.002 | inactive: -0.016 | inactive: -0.006 | inactive: 0.068 | inactive: 0.012 | inactive: 0.082 | inactive: 0.01 | inactive: -0.043 | inactive: 0.223 |  | inactive: -0.155 | inactive: -0.027 | inactive: -0.05 | inactive: 0.157 | inactive: 0.109 | inactive: 0.154
NR3C1 isoform 3 (UniProt P04150) | inactive: 0.061 | inactive: -0.019 | inactive: -0.058 | inactive: -0.075 | inactive: 0.044 |  | inactive: -0.059 | inactive: -0.019 | inactive: -0.076 | inactive: 0.04 | inactive: 0.008 | inactive: -0.031 | inactive: 0.104 | inactive: 0.024 | inactive: -0.033 | inactive: 0.055 | inactive: 0.09 | inactive: 0.047 | inactive: -0.064 | inactive: -0.168
NR2F2 (UniProt P24468) | inactive: -0.007 |  | inactive: 0 |  | inactive: 0.076 |  | inactive: 0.048 | inactive: -0.09 | inactive: -0.006 | inactive: -0.069 | inactive: -0.067 | inactive: 0.097 | inactive: 0.032 | inactive: -0.031 | inactive: 0.065 | inactive: -0.042 | inactive: -0.192 |  |  | inactive: 0.007
NUB1 (UniProt Q9Y5A7) | inactive: 0.049 | inactive: 0.055 | inactive: -0.003 | inactive: -0.015 | inactive: 0.054 | inactive: 0.023 | inactive: -0.02 | inactive: 0.022 | inactive: -0.003 | inactive: 0.018 | inactive: -0.027 | inactive: 0.014 | inactive: -0.009 | inactive: -0.028 | inactive: 0.008 | inactive: 0.02 | inactive: 0.002 | inactive: -0.022 | inactive: -0.023 | inactive: -0.001
NSD1 (UniProt Q96L73) | inactive: -0.026 | inactive: 0.018 | inactive: 0.001 | inactive: 0.045 | inactive: -0.001 | inactive: 0.069 | inactive: 0.076 | inactive: -0.011 | inactive: 0.015 | inactive: -0.019 | inactive: -0.042 | inactive: 0.069 | inactive: -0.091 |  | inactive: 0.016 | inactive: 0.008 |  | inactive: -0.025 | inactive: -0.003 | 
NTAN1 (UniProt Q96AB6) | inactive: 0.094 | inactive: 0.08 | inactive: -0.01 | inactive: 0.22 | inactive: -0.026 | inactive: -0.099 | inactive: 0 |  | inactive: -0.028 | inactive: -0.123 | inactive: -0.014 |  | inactive: 0.022 | inactive: 0.012 | inactive: -0.007 |  | inactive: -0.022 | inactive: -0.378 | inactive: 0.159 | inactive: 0.085
NPL (UniProt Q9BXD5) | inactive: -0.001 | inactive: 0 | inactive: -0.028 | inactive: -0.068 |  | inactive: -0.166 |  | inactive: -0.012 |  |  | inactive: -0.004 | inactive: 0.059 | inactive: -0.053 |  |  | inactive: 0.032 | inactive: 0.004 | inactive: 0.024 | inactive: -0.059 | inactive: 0.034
NME1 isoform 2 (UniProt P15531) | inactive: 0.002 | inactive: 0.184 | inactive: -0.079 | inactive: -0.052 | inactive: -0.03 | inactive: 0.132 | inactive: -0.015 | inactive: -0.029 | inactive: 0 | inactive: -0.013 | inactive: 0.032 |  | inactive: -0.034 | inactive: 0.039 | inactive: -0.006 | inactive: 0.012 | inactive: -0.029 | inactive: 0.065 | inactive: 0.001 | inactive: 0.028
NUDT6 (UniProt P53370) | inactive: -0.01 | inactive: 0.113 | inactive: -0.02 | active: -0.518 | inactive: -0.008 | inactive: 0.111 | inactive: 0.032 |  | inactive: 0.065 | inactive: -0.033 | inactive: 0.054 |  | inactive: 0.169 | inactive: 0.011 | inactive: -0.042 |  |  | inactive: -0.06 | inactive: 0.06 | 

Nothing new here: an excerpt of the list.
Target | log2 fold change [1] | log2 fold change [2] | log2 fold change [3] | log2 fold change [4] | log2 fold change [5] | log2 fold change [6] | log2 fold change [7] | log2 fold change [8] | log2 fold change [9] | log2 fold change [10] | log2 fold change [11] | log2 fold change [12] | log2 fold change [13] | log2 fold change [14] | log2 fold change [15] | log2 fold change [16] | log2 fold change [17] | log2 fold change [18] | log2 fold change [19] | log2 fold change [20]
NUB1 (UniProt Q9Y5A7) | inactive: 0.049 | inactive: 0.055 | inactive: -0.003 | inactive: -0.015 | inactive: 0.054 | inactive: 0.023 | inactive: -0.02 | inactive: 0.022 | inactive: -0.003 | inactive: 0.018 | inactive: -0.027 | inactive: 0.014 | inactive: -0.009 | inactive: -0.028 | inactive: 0.008 | inactive: 0.02 | inactive: 0.002 | inactive: -0.022 | inactive: -0.023 | inactive: -0.001
NSD1 (UniProt Q96L73) | inactive: -0.026 | inactive: 0.018 | inactive: 0.001 | inactive: 0.045 | inactive: -0.001 | inactive: 0.069 | inactive: 0.076 | inactive: -0.011 | inactive: 0.015 | inactive: -0.019 | inactive: -0.042 | inactive: 0.069 | inactive: -0.091 |  | inactive: 0.016 | inactive: 0.008 |  | inactive: -0.025 | inactive: -0.003 | 
